In patent US20240018105A1, “TROPOLONE DERIVATIVES AND TAUTOMERS THEREOF FOR IRON REGULATION IN ANIMALS” (Kinesid Therapeutics, Inc., priority 2019, published 2024):
For at least one compound, name, drawing or mass did not settle the structure.

Test: Ligand facilitated Fe(III) efflux from liposomes
Settings: 10 uM ligand concentration; Table 2
Method: Assay 1: Ligand Facilitated Fe(III) Efflux from Liposomes Preparation of POPC (1-palmitoyl-2-oleoyl-sn-glycero-3-phosphocholine): Cholesterol Liposomes:
A 1M buffer solution of MES and Tris was prepared by dissolving 121.14 grams of Tris base and 213.25 grams of MES hydrate in 500 mL of MilliQ water and adjusted to pH7.0 using an […] HCl solution before bringing the total volume of the solution to 1 L. A 500 mM solution of FeCl3 was prepared by dissolving 0.811 grams of anhydrous FeCl3 in 10 mL of a 0.1M H2SO4 aqueous solution. […]
The lipids solution and the inside buffer solution are independently loaded into 10 mL luer lock syringes for loading into a virgin cartridge on a Precision Nanosystems NanoAssembler to prepare unilamaller liposomes with the following parameters: 7.5 mL total volume, 1.5:1 mixing ratio of inside buffer:lipids solution, 8 mL/min flow rate, ambient temperature, 0.35 mL start waste, and 0.05 mL of end waste. […] The eluting liposomes, observed as a milky and turbid solution, are collected until free iron begins to elute (observed as a deep purple color) and the fractions are pooled for phosphorus quantitation.
Phosphorus content of eluted liposomes was determined by the process outlined below. […]

Row | Structure (SMILES) | Liposome Fe transport Kefflux at 10 μM
1 | O=c1ccccc(Oc2ccc(F)cc2)c1O [Ex.66, 3-(4-fluorophenoxy)-2-hydroxycyclohepta-2,4,6-trien-1-one] | 0.1-5
2 | O=c1ccccc(-c2ccc(Cl)cn2)c1S [Ex.73, 3-(5-chloropyridin-2-yl)-2-mercaptocyclohepta-2,4,6-trien-1-one] | 7.5-10
